# Results from article PMC8960830.
# What was measured:
# S9.6 Fab WT [1] = experiment: fluorescence polarization; settings: FP: 25 mM Tris-HCl pH 7.5, 50 mM NaCl, 2 mM MgCl2, 21 C, ~5 nM FAM duplex, SEC-MALS 150 mM NaCl, recombinant protein, protein details: HC C-terminal His6
# S9.6 Fab WT [2] = experiment: SEC-MALS; settings: 150 mM NaCl, recombinant protein, protein details: HC C-terminal His6
# S9.6 Fab WT [3] = experiment: ITC; settings: only insignificant heat; recombinant protein; protein details: HC C-terminal His6; letters put together from the description
# S9.6 Fab WT [4] = experiment: competition with a labelled probe; settings: no competition at 50,000-fold excess; recombinant protein; protein details: HC C-terminal His6
# S9.6 scFv = experiment: fluorescence polarization; settings: affinity similar to Fab; FP: 25 mM Tris-HCl pH 7.5, 50 mM NaCl, 2 mM MgCl2, 21 C, ~5 nM FAM duplex; SEC-MALS 150 mM NaCl; recombinant protein; DNA:RNA hybrid; letters put together from the description
# S9.6 Fab HC_N55A = experiment: fluorescence polarization; settings: negligible impact; FP: 25 mM Tris-HCl pH 7.5, 50 mM NaCl, 2 mM MgCl2, 21 C, ~5 nM FAM duplex; SEC-MALS 150 mM NaCl; recombinant protein; protein details: HC C-terminal His6; DNA:RNA hybrid; letters put together from the description
# S9.6 Fab HC_N55R = experiment: fluorescence polarization; settings: negligible impact; FP: 25 mM Tris-HCl pH 7.5, 50 mM NaCl, 2 mM MgCl2, 21 C, ~5 nM FAM duplex; SEC-MALS 150 mM NaCl; recombinant protein; protein details: HC C-terminal His6; DNA:RNA hybrid; letters put together from the description
# S9.6 Fab HC_S103A = experiment: fluorescence polarization; settings: contact dispensable; FP: 25 mM Tris-HCl pH 7.5, 50 mM NaCl, 2 mM MgCl2, 21 C, ~5 nM FAM duplex; SEC-MALS 150 mM NaCl; recombinant protein; protein details: HC C-terminal His6; DNA:RNA hybrid; letters put together from the description
# S9.6 Fab HC_S31L = experiment: fluorescence polarization; settings: N.D., abolished; FP: 25 mM Tris-HCl pH 7.5, 50 mM NaCl, 2 mM MgCl2, 21 C, ~5 nM FAM duplex; SEC-MALS 150 mM NaCl; recombinant protein; protein details: HC C-terminal His6; DNA:RNA hybrid; letters put together from the description
# S9.6 Fab HC_Y100A = experiment: fluorescence polarization; settings: no defect; FP: 25 mM Tris-HCl pH 7.5, 50 mM NaCl, 2 mM MgCl2, 21 C, ~5 nM FAM duplex; SEC-MALS 150 mM NaCl; recombinant protein; protein details: HC C-terminal His6; DNA:RNA hybrid; letters put together from the description
# S9.6 Fab HC_Y101A = experiment: fluorescence polarization; settings: FP: 25 mM Tris-HCl pH 7.5, 50 mM NaCl, 2 mM MgCl2, 21 C, ~5 nM FAM duplex; SEC-MALS 150 mM NaCl; recombinant protein; protein details: HC C-terminal His6; DNA:RNA hybrid; letters put together from the description
# S9.6 Fab HC_R104A = experiment: fluorescence polarization; settings: complete ablation; FP: 25 mM Tris-HCl pH 7.5, 50 mM NaCl, 2 mM MgCl2, 21 C, ~5 nM FAM duplex; SEC-MALS 150 mM NaCl; recombinant protein; protein details: HC C-terminal His6; DNA:RNA hybrid; letters put together from the description
# S9.6 Fab WT [5] = experiment: crystal structure; settings: recombinant protein; protein details: HC C-terminal His6; DNA:RNA hybrid; letters put together from the description
# [6] = Kd of three hybrids 78-203 nM, label: 5' FAM, DNA:RNA hybrid, letters put together from the description
# [7] = only weak binding at 40% GC or less, label: 5' FAM, DNA:RNA hybrid, letters put together from the description
# [8] = Kd of three dsRNAs 1.5-5.4 uM, label: 5' FAM, letters put together from the description
sequence,measurement,setting,value
GGCACCTGCATTT / AAAUGCAGGUGCC [B-actin terminator 13-bp hybrid],binding result,S9.6 Fab WT [1]; [6],binds
GCAGAGGAGGCTA / UAGCCUCCUCUGC [FUS 13-bp hybrid],binding result,S9.6 Fab WT [1]; [6],binds
CUUGUCUGACACG / CGUGUCAGACAAG [13-bp dsRNA],binding result,S9.6 Fab WT [2]; letters put together from the description,no binding
same,binding result,S9.6 Fab WT [3],no binding
CGTGTCAGACAAG (double strand) [13-bp dsDNA],binding result,S9.6 Fab WT [1]; N.D.,no binding
same,binding result,S9.6 Fab WT [4],no binding
same,binding result,S9.6 Fab WT [2],no binding
GCAGAGGAGGCTA (double strand) [FUS 13-bp dsDNA],binding result,S9.6 Fab WT [1]; label: 5' FAM,no binding
CGTCTCAGACAAG / CUUGUCUGAGACG [13-bp hybrid dG4C:rC10G],binding result,"S9.6 Fab WT [1]; negligible impact, label: 5' FAM, DNA:RNA hybrid, letters put together from the description",binds
TAGACAGACA / UGUCUGUCUA [10-bp hybrid 40% GC],binding result,"S9.6 Fab WT [1]; N.D. in table, only weak binding at 40% GC or less, label: 5' FAM, DNA:RNA hybrid, letters put together from the description",binds more weakly
TATACAGATA / UAUCUGUAUA [10-bp hybrid 20% GC],binding result,S9.6 Fab WT [1]; [7],binds more weakly
TATATATATATATAT / AUAUAUAUAUAUAUA [15-bp hybrid 0% GC],binding result,"S9.6 Fab WT [1]; essentially no binding, label: 5' FAM, DNA:RNA hybrid, letters put together from the description",no binding
GGCACCTGCATTT (double strand) [B-actin terminator 13-bp dsDNA],binding result,S9.6 Fab WT [1]; label: 5' FAM,no binding
TATATATATA / UAUAUAUAUA [10-bp hybrid 0% GC],binding result,S9.6 Fab WT [1]; [7],binds more weakly
UAGCCUCCUCUGC / GCAGAGGAGGCUA [FUS 13-bp dsRNA],binding result,S9.6 Fab WT [1]; [8],binds more weakly
AAAUGCAGGUGCC / GGCACCUGCAUUU [B-actin terminator 13-bp dsRNA],binding result,S9.6 Fab WT [1]; [8],binds more weakly
TATACATATA / UAUAUGUAUA [10-bp hybrid 10% GC],binding result,S9.6 Fab WT [1]; [7],binds more weakly
TAGACAGATA / UAUCUGUCUA [10-bp hybrid 30% GC],binding result,S9.6 Fab WT [1]; [7],binds more weakly
CGTGTCAGACAAG / CUUGUCUGACACG [13-bp DNA-RNA hybrid],binding result,S9.6 scFv,binds
same,binding result,S9.6 Fab HC_N55A,binds
same,binding result,S9.6 Fab HC_N55R,binds
same,binding result,S9.6 Fab HC_S103A,binds
same,binding result,S9.6 Fab HC_S31L,no binding
same,binding result,S9.6 Fab HC_Y100A,binds
same,binding result,S9.6 Fab HC_Y101A,no binding
same,binding result,S9.6 Fab HC_R104A,no binding
same,binding result,"S9.6 Fab WT [2]; 1:1 complex, DNA:RNA hybrid, letters put together from the description",binds
same,binding result,S9.6 Fab WT [5],binds

# Construct, isoform or probe ends are uncertain for at least one entry. For some of these results: A negative result means that nothing was seen under these conditions. For some of these results: At least one verdict rests on a figure or table, not on a statement of the authors. For some of these results: A weaker result is weaker than the reference pair of the same experiment.
